Test [1] concerns the target T1, TtSlyDsh3.
T1 sequence: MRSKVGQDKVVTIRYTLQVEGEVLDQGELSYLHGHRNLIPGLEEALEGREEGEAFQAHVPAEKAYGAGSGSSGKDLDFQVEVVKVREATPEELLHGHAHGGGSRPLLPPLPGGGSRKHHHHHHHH
The test can be described thus: SPR (Biacore), captured antibody, single injection of 300 nM analyte.

For test [2], the target named is T1, TtSlyDsh3. The test can be described thus: SPR (Biacore), antibody captured, analyte in solution.

No constants are given. Whether binding was seen depends on the method and setting.

B1: antibody 1H11 (antibody, V domains shown)
VH: QSVEESGGRLVTPGTPLTLTCTASGFSLSRYWMTWVRQAPGKGLEYIGWIDRSGNTYFADWAKGRFTGSKTSTTRDLKITSPTTEDTATYFCGRGGQNNGYDLWGPGTLVTVSS
VL: AAVLTQTPSPVSAAVGGTVTISCQSSESVYSNNFLSWYQLKPGQRPRLLIYEASKVASGVPSRFSGSGSGTQFTLTISGVQCDDAATYYCAGGYDVSDDAFGGGTEVLVK
notes: Rabbit full length IgG made recombinantly in FreeStyle 293-F cells; For SPR it was captured from HEK culture supernatant on goat anti-rabbit F(ab)2; no sentence ties 1H11 to them directly; also called rabbit monoclonal anti-CSF-1R antibody
In the case of B1, the binding result in the test with TtSlyDsh3 [1] and with TtSlyDsh3 [2] was “no binding (tested: 300 nM)” throughout.

The values are drawn from patent US20220235139A1 (ROCHE DIAGNOSTICS OPERATIONS, published 2022).
